Measurements from paper doi:10.1101/2021.10.05.463238 (bioRxiv, 2021).
Results are given in words; binding and its absence hold for the method and conditions named. Tags and fused reporters may be left off the sequences shown.

Columns and labels:
[1] = biological target: SPR2 (1-400)-GFP (Arabidopsis thaliana) (UniProt Q9T041); assay: native gel or EMSA
[2] = biological target: SPR2(1-500)-GFP (Arabidopsis thaliana) (UniProt Q9T041); assay: native gel or EMSA

B1: SPR2 (1-400)-GFP (domain or fragment, UniProt Q9T041 1-400)
chain: MSTPTTSGSAAKPTRPARSSSLATRSCSNSGSLTSFQAMVELKQKILTSISKLADRDTYQIAVEDLEKTIQSLTPETLPMFLNCLYDSCSDPKPAVKKECLHLLSYVCSLHCDSTAAHLTKIIAQIVKRLKDSDSGVRDACRDTIGALSGIYLKGKEEGTNTGSASLAVGLFVKPLFEAMGEQNKVVQSGASMCMARMVESAASPPVTSFQKLCPRICKLLSNSSFLAKASLLPVVSSLSQVGAIAPQSLESLLESIHDCLGSTDWVTRKAAAETLTALASHSSGLIKEKTDSTITVLETCRFDKIKPVRESVTEALQLWKKISGKYVDGASDDSKLSASEQLGSEKNGEKRSNLADLMKKEASDGSTLSPDSASKGKGCFPEKAVGLLKKKAPVLSDKD
**Q.** B1 was tested. Which binding [1] did it give?
**A.** Its binding is “no binding (tested: 2 μM)”.

B2: SPR2(1-500)-GFP (domain or fragment, UniProt Q9T041 1-500)
chain: MSTPTTSGSAAKPTRPARSSSLATRSCSNSGSLTSFQAMVELKQKILTSISKLADRDTYQIAVEDLEKTIQSLTPETLPMFLNCLYDSCSDPKPAVKKECLHLLSYVCSLHCDSTAAHLTKIIAQIVKRLKDSDSGVRDACRDTIGALSGIYLKGKEEGTNTGSASLAVGLFVKPLFEAMGEQNKVVQSGASMCMARMVESAASPPVTSFQKLCPRICKLLSNSSFLAKASLLPVVSSLSQVGAIAPQSLESLLESIHDCLGSTDWVTRKAAAETLTALASHSSGLIKEKTDSTITVLETCRFDKIKPVRESVTEALQLWKKISGKYVDGASDDSKLSASEQLGSEKNGEKRSNLADLMKKEASDGSTLSPDSASKGKGCFPEKAVGLLKKKAPVLSDKDFNPEFFQRLERRQSVEVVVPRRCKNNDEEESGLDDLNAMGSSNRLKNTQADDKQVKGRFDGNGSQARTSGDDKAGVVNGKETPGHHAPVSNTDNQSEGSF
**Q.** B2 was tested. Which binding [2] did it give?
**A.** The binding was “no binding (tested: 2 μM)”.
